IC50 data for one compound are collected here from patent US20050053993A1, “Uses of an endothelial cell receptor” (priority 2002, published 2005).

Molecules are shown by their SMILES. In brackets after ≈: the same amount, converted by molar mass.

This experiment relates to A549. The experiment can be described thus: Tumor cell proliferation, A549. The format is cell-based. Particulars: Homo sapiens; A549, 72 hours. How it is done:
Cell Proliferation Assay. The effect of rK5 and rK5 peptides on endothelial cells were assessed using a proliferation assay with 1% BSA and 3 ng/ml bFGF in serum-free media. Relative cell numbers in each well of a 96 well microplate after incubation for 72 hours in the absence or presence of inhibitors were determined by using the AQueous cell proliferation assay (Promega, San Luis Obispo, Calif.). For all other cell lines tested for proliferation, minimal growth media was used (Cao, Y., Ji, R., Davidson, D., Schaller, J., Marti, D., Sohndel, S., McCance, S., O'Reilly, M., Llinas, M., and Folkman, J. Kringle domains of human angiostatin. Characterization of the anti-proliferative activity on endothelial cells. (1996) J. Biol. Chem. 271, 29461-29467). Results are presented as the percent inhibition of control cell (bFGF-induced) proliferation.

With `COc1cccc2c1C(=O)c1c(O)c3c(c(O)c1C2=O)C[C@@](O)(C(=O)CO)C[C@@H]3O[C@H]1C[C@H](N)[C@H](O)[C@H](C)O1` [Adriamycin, reference compound], it took 0.051 ± 0.006 µg/mL (≈ 0.0938 µM) to reach half-maximal inhibition (IC50).

By IC50 is commonly meant the concentration at which inhibition is half-maximal. Low values mean inhibition by little substance, high ones a need for much substance.
